The other results are listed elsewhere or left out. Only a few entries rise above the background.
How the values were obtained:
Experiment in all cases: fluorescence intensity of antibody binding to polysaccharide-coupled beads; higher = stronger binding
[1] = target: pneumococcal polysaccharide Pn41A
[2] = target: pneumococcal polysaccharide Pn41F
[3] = target: pneumococcal polysaccharide Pn42
[4] = target: pneumococcal polysaccharide Pn43
[5] = target: pneumococcal polysaccharide Pn44
[6] = target: pneumococcal polysaccharide Pn45
[7] = target: pneumococcal polysaccharide Pn46
[8] = target: pneumococcal polysaccharide Pn47A
[9] = target: pneumococcal polysaccharide Pn47F
[10] = target: pneumococcal polysaccharide Pn48
[11] = target: pneumococcal polysaccharide Pn5
[12] = target: pneumococcal polysaccharide Pn6A
[13] = antibody concentration 2.8593 ng/mL
[14] = antibody concentration 15.2894 ng/mL
[15] = antibody concentration 81.7561 ng/mL
[16] = antibody concentration 437.17 ng/mL
[17] = antibody concentration 2337.65 ng/mL
[18] = antibody concentration 12500 ng/mL
[19] = antibody concentration 0.1 ng/mL
[20] = antibody concentration 0.534724 ng/mL

B1: 4-173.5 (protein)
chain 1: QLQLQESGPGLVKPSETLSLTCAVSGDSISSNYWSWIRQPPGKGLEWIGRISDGGGSTDYNPSLKSRVTISTDTSKNQFSLKLNSVTAADTAVYFCARGSYRVDYWGQGVLVTVSS
chain 2: QAALTQPPSMSGSPGQSVTISCTGASSDIGGYNRVSWYQQHPANAPKLMIYDVSKRPSGVSDRFSGSKSGNTASLTISGLQADDEADYYCSSYAHINTALFGGGTRLTVL
fluorescence intensity [1, 13]: 26 MFI
fluorescence intensity [1, 14]: 38.5 MFI
fluorescence intensity [1, 15]: 125 MFI
fluorescence intensity [1, 16]: 651 MFI
fluorescence intensity [1, 17]: 2070 MFI
fluorescence intensity [1, 18]: 3180 MFI
fluorescence intensity [2, 19]: 12.5 MFI
fluorescence intensity [2, 20]: 13.5 MFI
fluorescence intensity [2, 13]: 14.5 MFI
fluorescence intensity [2, 14]: 30.2 MFI
fluorescence intensity [2, 15]: 137 MFI
fluorescence intensity [2, 16]: 640 MFI
fluorescence intensity [2, 17]: 2050 MFI
fluorescence intensity [2, 18]: 3270 MFI
fluorescence intensity [3, 19]: 12 MFI
fluorescence intensity [3, 20]: 11.5 MFI
fluorescence intensity [3, 13]: 15 MFI
fluorescence intensity [3, 14]: 35 MFI
fluorescence intensity [3, 15]: 182 MFI
fluorescence intensity [3, 16]: 984 MFI
fluorescence intensity [3, 17]: 3380 MFI
fluorescence intensity [3, 18]: 5150 MFI
fluorescence intensity [4, 19]: 16.5 MFI
fluorescence intensity [4, 20]: 16.5 MFI
fluorescence intensity [4, 13]: 16 MFI
fluorescence intensity [4, 14]: 22.5 MFI
fluorescence intensity [4, 15]: 50 MFI
fluorescence intensity [4, 16]: 273 MFI
fluorescence intensity [4, 17]: 1390 MFI
fluorescence intensity [4, 18]: 3510 MFI
fluorescence intensity [5, 19]: 25 MFI
fluorescence intensity [5, 20]: 25.5 MFI
fluorescence intensity [5, 13]: 25 MFI
fluorescence intensity [5, 14]: 26 MFI
fluorescence intensity [5, 15]: 31 MFI
fluorescence intensity [5, 16]: 58.5 MFI
fluorescence intensity [5, 17]: 333 MFI
fluorescence intensity [5, 18]: 1070 MFI
fluorescence intensity [6, 19]: 11 MFI
fluorescence intensity [6, 20]: 11.2 MFI
fluorescence intensity [6, 13]: 12 MFI
fluorescence intensity [6, 14]: 14 MFI
fluorescence intensity [6, 15]: 27.5 MFI
fluorescence intensity [6, 16]: 152 MFI
fluorescence intensity [6, 17]: 842 MFI
fluorescence intensity [6, 18]: 1920 MFI
fluorescence intensity [7, 19]: 24.2 MFI
fluorescence intensity [7, 20]: 24 MFI
fluorescence intensity [7, 13]: 27.5 MFI
fluorescence intensity [7, 14]: 60 MFI
fluorescence intensity [7, 15]: 290 MFI
fluorescence intensity [7, 16]: 1250 MFI
fluorescence intensity [7, 17]: 3860 MFI
fluorescence intensity [7, 18]: 6470 MFI
fluorescence intensity [8, 19]: 15.5 MFI
fluorescence intensity [8, 20]: 16 MFI
fluorescence intensity [8, 13]: 16.5 MFI
fluorescence intensity [8, 14]: 23.8 MFI
fluorescence intensity [8, 15]: 74 MFI
fluorescence intensity [8, 16]: 387 MFI
fluorescence intensity [8, 17]: 1530 MFI
fluorescence intensity [8, 18]: 2300 MFI
fluorescence intensity [9, 19]: 12 MFI
fluorescence intensity [9, 20]: 12.5 MFI
fluorescence intensity [9, 13]: 13.5 MFI
fluorescence intensity [9, 14]: 23.8 MFI
fluorescence intensity [9, 15]: 103 MFI
fluorescence intensity [9, 16]: 586 MFI
fluorescence intensity [9, 17]: 2020 MFI
fluorescence intensity [9, 18]: 3440 MFI
fluorescence intensity [10, 19]: 21.5 MFI
fluorescence intensity [10, 20]: 21 MFI
fluorescence intensity [10, 13]: 24.8 MFI
fluorescence intensity [10, 14]: 29 MFI
fluorescence intensity [10, 15]: 68 MFI
fluorescence intensity [10, 16]: 336 MFI
fluorescence intensity [10, 17]: 1480 MFI
fluorescence intensity [10, 18]: 2650 MFI
fluorescence intensity [11, 19]: 8.5 MFI
fluorescence intensity [11, 20]: 9.75 MFI
fluorescence intensity [11, 13]: 10.5 MFI
fluorescence intensity [11, 14]: 22.8 MFI
fluorescence intensity [11, 15]: 102 MFI
fluorescence intensity [11, 16]: 492 MFI
fluorescence intensity [11, 17]: 1680 MFI
fluorescence intensity [11, 18]: 2950 MFI
fluorescence intensity [12, 19]: 22 MFI
fluorescence intensity [12, 20]: 22 MFI
fluorescence intensity [12, 13]: 25.5 MFI
fluorescence intensity [12, 14]: 54.8 MFI
